Source: the supplement of paper PMC4604168 (melanoma cell lines)
This is one part of the list. Repeats are few or missing, and single values can be far off.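 The apoptosis fraction was the count of cleaved-PARP antibody-stained nuclei relative to all DNA-stained nuclei, imaged in 1,536-well plates. Screening doses were set so most cells survived, and baseline and induced cleaved-PARP levels vary greatly across cell lines.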

test system: IPC-298; test: cleaved PARP positive nuclei fraction relative to DMSO control; melanoma cells; higher = more apoptosis; conditions: library dose: low library concentration; 72 h

| SMILES | cleaved PARP positive nuclei fraction [%] |
| --- | --- |
| OCCn1cc(-c2cnc3nnn(Cc4ccc5ncccc5c4)c3n2)cn1 + Oc1cc(-c2nc(-c3ccccc3)[nH]c2-c2ccncc2)ccc1Cl [L779450] (first compound 1 µM, partner dose 0.2 µM) | 48.2 |
| CO[C@@H]1[C@H](N(C)C(=O)c2ccccc2)C[C@H]2O[C@]1(C)n1c3ccccc3c3c4c(c5c6ccccc6n2c5c31)C(=O)NC4 [Midostaurin] + O=C(Nc1ccccc1)c1cc([N+](=O)[O-])ccc1Cl [GW9662] (first compound 0.08 µM, partner dose 2 µM) | 68 |
| CC1(C)NC(=O)N(c2ccc([N+](=O)[O-])c(C(F)(F)F)c2)C1=O [nilutamide] + COC(=O)c1sccc1S(=O)(=O)Nc1ccc(Nc2ccccc2)cc1OC [GSK0660] (first compound 1 µM, partner dose 1 µM) | 142 |
| Cc1nc(Nc2ncc(C(=O)Nc3c(C)cccc3Cl)s2)cc(N2CCN(CCO)CC2)n1 [dasatanib] + Cc1cc([N+](=O)[O-])ccc1NS(=O)(=O)c1cc(Cl)ccc1Cl [FH535] (first compound 0.004 µM, partner dose 1 µM) | 202 |
| C[C@@H]1CCN(C(=O)CC#N)C[C@@H]1N(C)c1ncnc2[nH]ccc12 + O=C(Nc1ccccc1)c1cc([N+](=O)[O-])ccc1Cl [GW9662] (first compound 1 µM, partner dose 2 µM) | 56 |
| C=CCn1c(=O)c2cnc(Nc3ccc(N4CCN(C)CC4)cc3)nc2n1-c1cccc(C(C)(C)O)n1 + O=c1cc(-c2cccc3c2Sc2ccccc2S3)oc(N2CCOCC2)c1 [KU55933] (first compound 0.02 µM, partner dose 1 µM) | 74.3 |
| Cc1ccc(NC(=O)c2cccc(N(C)C)c2)cc1NC(=O)c1ccc(O)cc1 + N#Cc1c(O)c2c(-c3ccc(-c4ccccc4O)cc3)csc2[nH]c1=O [A769662] (first compound 2 µM, partner dose 2 µM) | 106 |
| Cc1cc(N2CCOCC2)cc2[nH]c(-c3c(NC[C@@H](O)c4cccc(Cl)c4)cc[nH]c3=O)nc12 + O=C(O)C(=O)Nc1sc2c(c1C(=O)O)CCNC2 [TCS401] (first compound 0.2 µM, partner dose 1.66667 µM) | 94.3 |
| C=CCn1c(=O)c2cnc(Nc3ccc(N4CCN(C)CC4)cc3)nc2n1-c1cccc(C(C)(C)O)n1 + CCN(CC)CCCCNc1ncc2cc(-c3cc(OC)cc(OC)c3)c(NC(=O)NC(C)(C)C)nc2n1 [PD173074] (first compound 0.02 µM, partner dose 0.1 µM) | 57.6 |
| Cc1cc(N2CCOCC2)cc2[nH]c(-c3c(NC[C@@H](O)c4cccc(Cl)c4)cc[nH]c3=O)nc12 + O=c1cc(-c2cccc3c2Sc2ccccc2S3)oc(N2CCOCC2)c1 [KU55933] (first compound 0.2 µM, partner dose 1 µM) | 120 |
| C#Cc1cccc(Nc2ncnc3cc(OCCOC)c(OCCOC)cc23)c1 [erlotinib] + O=c1cc(-c2cccc3c2Sc2ccccc2S3)oc(N2CCOCC2)c1 [KU55933] (first compound 0.8 µM, partner dose 1 µM) | 132 |
| Cn1c(Nc2ccc(C(F)(F)F)cc2)nc2cc(Oc3ccnc(-c4ncc(C(F)(F)F)[nH]4)c3)ccc21 + O=C1NC(=O)/C(=C/c2ccc(-c3ccc(F)cc3O)o2)S1 [AS252424] (first compound 0.08 µM, partner dose 1 µM) | 69.4 |
| NC(=O)Nc1cc(-c2cccc(F)c2)sc1C(=O)N[C@H]1CCCNC1 + CCCCCCCCCCCC1=C(O)C(=O)C=C(O)C1=O [Embelin] (first compound 0.02 µM, partner dose 1.2 µM) | 97.8 |
| C=CCn1c(=O)c2cnc(Nc3ccc(N4CCN(C)CC4)cc3)nc2n1-c1cccc(C(C)(C)O)n1 + COc1cc2ncnc(Nc3ccc(Oc4ccccc4)cc3)c2cc1OC [SrcI1] (first compound 0.02 µM, partner dose 2 µM) | 90.5 |
| Cn1c(Nc2ccc(C(F)(F)F)cc2)nc2cc(Oc3ccnc(-c4ncc(C(F)(F)F)[nH]4)c3)ccc21 + N#Cc1c(O)c2c(-c3ccc(-c4ccccc4O)cc3)csc2[nH]c1=O [A769662] (first compound 0.08 µM, partner dose 2 µM) | 42.5 |
| Cn1nnc2c(C(N)=O)ncn2c1=O [temozolomide] + COc1cc(N2CCC(N3CCN(C)CC3)CC2)ccc1Nc1ncc(Cl)c(Nc2ccccc2S(=O)(=O)C(C)C)n1 [NVP-TAE684] (first compound 2 µM, partner dose 0.08 µM) | 32 |
| O=C(CCCCCCC(=O)Nc1ccccc1)NO [vorinostat] + COc1ccc(COc2ccc(Cc3cnc(N)nc3N)cc2OC)cc1 [GW2580] (first compound 0.08 µM, partner dose 1 µM) | 26.4 |

| SMILES | cleaved PARP positive nuclei fraction [%] |
| --- | --- |
| C#Cc1cccc(Nc2ncnc3cc(OCCOC)c(OCCOC)cc23)c1 [erlotinib] + Oc1cc(-c2nc(-c3ccccc3)[nH]c2-c2ccncc2)ccc1Cl [L779450] (first compound 0.8 µM, partner dose 0.2 µM) | 234 |
| C#Cc1cccc(Nc2ncnc3cc(OCCOC)c(OCCOC)cc23)c1 [erlotinib] + N#Cc1c(O)c2c(-c3ccc(-c4ccccc4O)cc3)csc2[nH]c1=O [A769662] (first compound 0.8 µM, partner dose 2 µM) | 82.1 |
| COCC[n+]1c2c(n(Cc3cnccn3)c1C)C(=O)c1ccccc1C2=O + COc1ccc(-c2ccc3c(N4CCOCC4)nc(N4C[C@@H](C)O[C@@H](C)C4)nc3n2)cc1CO [KU0063794] (first compound 0.0004 µM, partner dose 0.02 µM) | 96.4 |
| COc1cc(Nc2ncc(F)c(Nc3ccc4c(n3)NC(=O)C(C)(C)O4)n2)cc(OC)c1OC [Tamatinib] + O=C1NC(=O)/C(=C/c2ccc(-c3ccc(F)cc3O)o2)S1 [AS252424] (first compound 0.4 µM, partner dose 1 µM) | 277 |
| OCCn1cc(-c2cnc3nnn(Cc4ccc5ncccc5c4)c3n2)cn1 + Cc1cc([N+](=O)[O-])ccc1NS(=O)(=O)c1cc(Cl)ccc1Cl [FH535] (first compound 1 µM, partner dose 1 µM) | 131 |
| Nc1cccc2c1CN(C1CCC(=O)NC1=O)C2=O (stereo not drawn) [lenalidomide] + CCN(CC)CCCCNc1ncc2cc(-c3cc(OC)cc(OC)c3)c(NC(=O)NC(C)(C)C)nc2n1 [PD173074] (first compound 1 µM, partner dose 0.1 µM) | 80.5 |
| C[C@@H]1CCN(C(=O)CC#N)C[C@@H]1N(C)c1ncnc2[nH]ccc12 + O=C(O)C(=O)Nc1sc2c(c1C(=O)O)CCNC2 [TCS401] (first compound 1 µM, partner dose 1.66667 µM) | 123 |
| OCCn1cc(-c2cnc3nnn(Cc4ccc5ncccc5c4)c3n2)cn1 + COc1ccc2c(c1)CCC1C2CCC2(C)C(NCCCCCCN3C(=O)C=CC3=O)CCC12 [U73122] (first compound 1 µM, partner dose 0.4 µM) | 154 |
| Cc1cc(N2CCOCC2)cc2[nH]c(-c3c(NC[C@@H](O)c4cccc(Cl)c4)cc[nH]c3=O)nc12 + O=C(Nc1ccccc1)c1cc([N+](=O)[O-])ccc1Cl [GW9662] (first compound 0.2 µM, partner dose 2 µM) | 164 |
| Nc1cccc2c1CN(C1CCC(=O)NC1=O)C2=O (stereo not drawn) [lenalidomide] + O=C(Nc1ccccc1)c1cc([N+](=O)[O-])ccc1Cl [GW9662] (first compound 1 µM, partner dose 2 µM) | 49.2 |
| CC(C)(C)c1cnc(CSc2cnc(NC(=O)C3CCNCC3)s2)o1 + Oc1cc(-c2nc(-c3ccccc3)[nH]c2-c2ccncc2)ccc1Cl [L779450] (first compound 0.01 µM, partner dose 0.2 µM) | 105 |
| Cc1nc(Nc2ncc(C(=O)Nc3c(C)cccc3Cl)s2)cc(N2CCN(CCO)CC2)n1 [dasatanib] + COC(=O)c1sccc1S(=O)(=O)Nc1ccc(Nc2ccccc2)cc1OC [GSK0660] (first compound 0.004 µM, partner dose 1 µM) | 108 |
| C#Cc1cccc(Nc2ncnc3cc(OCCOC)c(OCCOC)cc23)c1 [erlotinib] + O=C(O)C(=O)Nc1sc2c(c1C(=O)O)CCNC2 [TCS401] (first compound 0.8 µM, partner dose 1.66667 µM) | 373 |
| Cn1c(Nc2ccc(C(F)(F)F)cc2)nc2cc(Oc3ccnc(-c4ncc(C(F)(F)F)[nH]4)c3)ccc21 + CCCCCCCCCCCC1=C(O)C(=O)C=C(O)C1=O [Embelin] (first compound 0.08 µM, partner dose 1.2 µM) | 167 |
| Cn1cncc1[C@@](N)(c1ccc(Cl)cc1)c1ccc2c(c1)c(-c1cccc(Cl)c1)cc(=O)n2C [tipifarnib] + COc1cc2ncnc(Nc3ccc(Oc4ccccc4)cc3)c2cc1OC [SrcI1] (first compound 0.01 µM, partner dose 2 µM) | 78.7 |
| C#Cc1cccc(Nc2ncnc3cc(OCCOC)c(OCCOC)cc23)c1 [erlotinib] + COc1cc2ncnc(Nc3ccc(Oc4ccccc4)cc3)c2cc1OC [SrcI1] (first compound 0.8 µM, partner dose 2 µM) | 99.1 |

Reprinted from the entries so far for reference:

| SMILES | cleaved PARP positive nuclei fraction [%] |
| --- | --- |
| Cn1c(Nc2ccc(C(F)(F)F)cc2)nc2cc(Oc3ccnc(-c4ncc(C(F)(F)F)[nH]4)c3)ccc21 + O=C1NC(=O)/C(=C/c2ccc(-c3ccc(F)cc3O)o2)S1 [AS252424] (first compound 0.08 µM, partner dose 1 µM) | 69.4 |
| NC(=O)Nc1cc(-c2cccc(F)c2)sc1C(=O)N[C@H]1CCCNC1 + CCCCCCCCCCCC1=C(O)C(=O)C=C(O)C1=O [Embelin] (first compound 0.02 µM, partner dose 1.2 µM) | 97.8 |
